# Measured values published in article PMC6925144, “A prospective compound screening contest identified broader inhibitors for Sirtuin 1” (Scientific Reports, 2019).
# The chains behind the UniProt entries cited, without tags or fusion partners. Residues count along the entry.
# UniProt Q96EB6, 2-747 limits assumed: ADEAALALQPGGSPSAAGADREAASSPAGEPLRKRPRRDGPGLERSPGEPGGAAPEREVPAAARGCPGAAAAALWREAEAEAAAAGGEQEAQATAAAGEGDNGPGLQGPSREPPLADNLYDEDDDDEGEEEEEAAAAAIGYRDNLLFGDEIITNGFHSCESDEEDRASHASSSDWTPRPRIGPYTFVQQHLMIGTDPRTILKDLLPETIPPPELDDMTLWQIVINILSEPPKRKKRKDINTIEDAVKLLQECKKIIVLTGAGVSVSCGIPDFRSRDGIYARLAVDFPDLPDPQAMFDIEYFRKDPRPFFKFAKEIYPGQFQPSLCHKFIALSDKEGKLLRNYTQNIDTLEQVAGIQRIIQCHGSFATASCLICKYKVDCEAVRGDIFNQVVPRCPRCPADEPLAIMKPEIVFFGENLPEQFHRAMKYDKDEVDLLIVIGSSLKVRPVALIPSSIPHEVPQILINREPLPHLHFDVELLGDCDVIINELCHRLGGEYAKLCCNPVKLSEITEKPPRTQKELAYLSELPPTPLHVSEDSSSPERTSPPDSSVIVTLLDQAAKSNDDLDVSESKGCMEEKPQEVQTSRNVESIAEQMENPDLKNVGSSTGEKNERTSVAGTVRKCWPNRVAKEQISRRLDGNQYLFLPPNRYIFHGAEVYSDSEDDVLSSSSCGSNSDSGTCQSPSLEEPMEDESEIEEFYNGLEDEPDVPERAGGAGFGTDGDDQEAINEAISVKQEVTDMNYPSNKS
# Over roughly 3,200 compounds, “TSA(without NAD+) / Primary screening (TSA) / delta Tm (K)” has its median near -0.07; the highest 2% begin near 0.37. The list shows a part of the results.
# Biological target: NAD-dependent deacetylase Sirtuin 1 (human, UniProt Q96EB6)
# Assay: primary screen, delta tm
# Set-up: single well (n = 1)
# Settings: 10 µM
# Procedure, shortened: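 Thermal shift of Sirtuin 1 measured without NAD+, compound at 10 µM (n = 1); value is ΔTm, with hits defined as ΔTm > 0.45 K or < −1.5 K. Hits retested at 5, 10, 20 µM (n = 4) and counterscreened on bovine carbonic anhydrase and ABL1 SH2 domain.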
row,SMILES,TSA(without NAD+) / Primary screening (TSA) / delta Tm (K)
1,COc1ccc(CCNC(=O)/C=C/c2ccc3ccccc3n2)cc1OC,-0.01
2,CCn1cnc2c(N3CC4CCCCCC43)ncnc21 (stereo not shown),-0.03
3,Cc1ccc(NC(=O)c2ccc(Cl)nc2Cl)cc1F,0.12
4,CC(NC(=O)COC(=O)c1ccc2c(c1)S(=O)(=O)c1ccccc1C2=O)C12CC3CC(CC(C3)C1)C2 (stereo not shown),0.17
5,NCc1nc2c(cnn2-c2ccccc2)c(=O)[nH]1,-1.92
6,COC(=O)CCC(=O)NNC(=O)CCC(=O)Nc1ccc(C)c(C)c1,-0.12
7,Cc1nn(C)c2ncc(S(=O)(=O)N(C)c3ccc4ccccc4c3)cc12,0.02
8,Cc1ccc(C(=O)C(OC(=O)c2c(C)noc2C)c2ccc(C)cc2)cc1 (stereo not shown),-0.22
9,NC(=O)c1ccc(NC(=O)c2ccccc2S(=O)(=O)N2CCCCC2)cc1,0.15
10,O=C(CSC1=N/C(=C\c2ccccc2)C(=O)N1c1ccc(F)cc1)c1c[nH]c2ccccc12,-0.02
11,Cc1ccccc1C(=O)N1CCC(C(=O)Nc2ccc(N3CCN(Cc4ccccc4)CC3)cc2)CC1,-0.24
12,NC(=O)C1CCCN(c2ncnc3ccsc23)C1 (stereo not shown),-0.15
13,O=C(NCc1cccc(OCc2ccccn2)c1)Nc1ccc(C(=O)N2CCCCCC2)cc1,0.06
14,O=C(CN1CCN(Cc2ccsc2)CC1)Nc1ccc(N2CCCC2=O)cc1,-0.12
15,COc1ccc2cc(C(=O)N(C)CC(=O)O)c(C)nc2c1,-0.18
16,CC1(c2ccc(C#N)cc2)NC(=O)N(CC(=O)Nc2ccc(C(N)=O)cc2)C1=O (stereo not shown),-0.04
17,COc1cccc(C(=O)C2=C(O)C(=O)N(CCCN3CCOCC3)C2c2cccs2)c1 (stereo not shown),0.02
18,NC(=O)c1ccc(OCC(=O)NC(=O)NCc2cccs2)cc1,0.03
19,O=C(c1ccc2c(=O)[nH]c(S)nc2c1)N1CCN(C(=O)c2cnccn2)CC1,-0.13
20,O=C1NC(=S)NC(=O)C1=Cc1ccc(N2CCOCC2)cc1,-0.18
21,O=C(Nc1cnc2ccccc2c1)C(=O)N1CCCC1c1ccsc1 (stereo not shown),-0.12
22,NS(=O)(=O)c1ccc(CCNC(=O)COC(=O)C23CC4CC(C2)CC(c2ccccc2)(C4)C3)cc1,-0.07
23,COc1ccc(N(C)S(=O)(=O)c2cccc(C(=O)Nc3ccc(Cl)cc3)c2)cc1,0.36

row,SMILES,TSA(without NAD+) / Primary screening (TSA) / delta Tm (K)
1,CCn1c(=O)c(C)nc2cc(C(=O)NCC(C(C)C)N(C)C)ccc21 (stereo not shown),0.08
2,O=C(CN1C(=O)COc2ccccc21)Nc1cccc(S(=O)(=O)NCc2ccco2)c1,0.07
3,NC(=O)CN1CCOc2cc(Br)c(Cl)cc21,-0.23
4,CN1C(=O)N(CC(=O)c2ccc3c(c2)CCCC3)C(=O)C12CCCCC2,-0.18
5,CC(C)c1ccc(-c2nnc(NC(=O)/C=C/c3ccco3)s2)cc1,-0.12
6,CCn1c(C(=O)Nc2ccc(CCO)cc2)cc2ccccc21,-0.04
7,Cc1nc2cc(NC(=O)C3Cc4ccccc4O3)ccc2o1 (stereo not shown),0.03
8,CC#CCN,-0.23
9,O=C(Nc1ccc(NC(=O)c2ccccc2-n2cccn2)cc1)NC1CC1,-0.08
10,COc1ccccc1-c1c(C)oc2cc(O)ccc2c1=O,-0.13
11,NC(=O)c1ccc(N2CCCC2)c(NC(=O)CCc2ccc3c(c2)OCO3)c1,-0.11
12,Cc1ccc(S(=O)(=O)N2CCCCC2)cc1NC(=O)COC(=O)c1ccccc1SCC(=O)N1CCCC1,0.12
13,O=C(c1ccc(-n2cnnn2)cc1Cl)N1CCCN2CCCC2C1 (stereo not shown),-0.07
14,Cc1nc(-c2cccnc2)nc(NCCOc2cccnc2)c1C,0.03
15,O=C(CN1C(=O)NC2(CCCC2)C1=O)NCC12CC3CC(CC(C3)C1)C2,-0.14
16,c1ccc(-c2cc(-c3nc4c5ccccc5ncn4n3)[nH]n2)cc1,-0.21
17,Cc1c(NN=C2C(=O)NC(=S)NC2=O)c(=O)n(-c2ccccc2)n1C,-0.03
18,O=C(O)c1cnc2c(c1)c(=O)[nH]c(=O)n2Cc1ccccc1,-0.13
19,OC1CCN(CCOCCOc2ccccc2)CC1,-0.24
20,CC(C(=O)Nc1ncccn1)N1CCC(c2c[nH]c3ccc(C(N)=O)cc23)CC1 (stereo not shown),0.03
21,NC(=O)c1ccc(=O)n(Cc2ccn(-c3ccccc3)n2)n1,-0.12
22,COc1ccc(C(=O)NCCc2ccc(-c3csc(C)n3)s2)cc1,0.07
23,C[C@@H](O)CCN,-0.14

# Random excerpt: two entries already listed, in no set order.
row,SMILES,TSA(without NAD+) / Primary screening (TSA) / delta Tm (K)
21,NC(=O)c1ccc(=O)n(Cc2ccn(-c3ccccc3)n2)n1,-0.12
7,Cc1nc2cc(NC(=O)C3Cc4ccccc4O3)ccc2o1 (stereo not shown),0.03
